Source: PMC3395697
Results are given in words; binding and its absence hold for the method and conditions named. In cells and extracts the contact can be indirect. Some entries that bind do so weakly or less than the wild type. For part of these data: Sequences can lack the tags named with a protein. Each block holds one molecule with its values, some of them ahead of it.

The chains behind the UniProt entries cited, without tags or fusion partners.
UniProt O09106: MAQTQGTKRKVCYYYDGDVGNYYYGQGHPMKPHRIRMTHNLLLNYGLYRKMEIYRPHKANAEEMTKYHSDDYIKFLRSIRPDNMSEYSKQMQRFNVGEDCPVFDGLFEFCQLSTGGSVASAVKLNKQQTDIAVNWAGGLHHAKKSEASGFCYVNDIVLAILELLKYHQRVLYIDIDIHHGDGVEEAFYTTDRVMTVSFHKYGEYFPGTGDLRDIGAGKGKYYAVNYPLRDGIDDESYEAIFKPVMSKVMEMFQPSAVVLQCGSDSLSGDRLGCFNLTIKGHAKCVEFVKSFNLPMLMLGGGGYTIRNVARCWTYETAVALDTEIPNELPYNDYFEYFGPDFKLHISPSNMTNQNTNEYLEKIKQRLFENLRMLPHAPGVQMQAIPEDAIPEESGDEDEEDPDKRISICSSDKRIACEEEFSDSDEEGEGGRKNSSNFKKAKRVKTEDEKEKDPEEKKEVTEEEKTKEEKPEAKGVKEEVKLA
UniProt Q13547: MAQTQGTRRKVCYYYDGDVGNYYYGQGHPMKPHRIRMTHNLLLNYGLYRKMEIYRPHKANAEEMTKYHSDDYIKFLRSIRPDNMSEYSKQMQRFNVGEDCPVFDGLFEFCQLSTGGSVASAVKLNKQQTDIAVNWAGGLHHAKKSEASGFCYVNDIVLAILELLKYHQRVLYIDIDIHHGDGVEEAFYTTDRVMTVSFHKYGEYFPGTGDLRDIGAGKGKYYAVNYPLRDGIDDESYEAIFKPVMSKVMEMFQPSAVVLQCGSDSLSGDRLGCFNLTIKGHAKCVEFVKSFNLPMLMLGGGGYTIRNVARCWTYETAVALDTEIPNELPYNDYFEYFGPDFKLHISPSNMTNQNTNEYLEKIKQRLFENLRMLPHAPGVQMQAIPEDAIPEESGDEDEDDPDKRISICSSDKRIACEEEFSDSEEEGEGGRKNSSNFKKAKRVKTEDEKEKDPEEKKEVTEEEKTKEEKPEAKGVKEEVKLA

Tests used:
[1] = molecular target: T1, endogenous Sin3A of C2C12 myoblasts (mouse (endogenous in C2C12)) (UniProt Q60520); assay: co-IP; sequential: lysates of C2C12 cells transfected with FLAG/ING2; anti-FLAG immunoprecipitation, FLAG peptide elution, immunoprecipitation of the eluate with mouse anti-Sin3A antibody or mouse anti-IgG control; blots for ING2, HDAC1, Sin3A
T1 sequence: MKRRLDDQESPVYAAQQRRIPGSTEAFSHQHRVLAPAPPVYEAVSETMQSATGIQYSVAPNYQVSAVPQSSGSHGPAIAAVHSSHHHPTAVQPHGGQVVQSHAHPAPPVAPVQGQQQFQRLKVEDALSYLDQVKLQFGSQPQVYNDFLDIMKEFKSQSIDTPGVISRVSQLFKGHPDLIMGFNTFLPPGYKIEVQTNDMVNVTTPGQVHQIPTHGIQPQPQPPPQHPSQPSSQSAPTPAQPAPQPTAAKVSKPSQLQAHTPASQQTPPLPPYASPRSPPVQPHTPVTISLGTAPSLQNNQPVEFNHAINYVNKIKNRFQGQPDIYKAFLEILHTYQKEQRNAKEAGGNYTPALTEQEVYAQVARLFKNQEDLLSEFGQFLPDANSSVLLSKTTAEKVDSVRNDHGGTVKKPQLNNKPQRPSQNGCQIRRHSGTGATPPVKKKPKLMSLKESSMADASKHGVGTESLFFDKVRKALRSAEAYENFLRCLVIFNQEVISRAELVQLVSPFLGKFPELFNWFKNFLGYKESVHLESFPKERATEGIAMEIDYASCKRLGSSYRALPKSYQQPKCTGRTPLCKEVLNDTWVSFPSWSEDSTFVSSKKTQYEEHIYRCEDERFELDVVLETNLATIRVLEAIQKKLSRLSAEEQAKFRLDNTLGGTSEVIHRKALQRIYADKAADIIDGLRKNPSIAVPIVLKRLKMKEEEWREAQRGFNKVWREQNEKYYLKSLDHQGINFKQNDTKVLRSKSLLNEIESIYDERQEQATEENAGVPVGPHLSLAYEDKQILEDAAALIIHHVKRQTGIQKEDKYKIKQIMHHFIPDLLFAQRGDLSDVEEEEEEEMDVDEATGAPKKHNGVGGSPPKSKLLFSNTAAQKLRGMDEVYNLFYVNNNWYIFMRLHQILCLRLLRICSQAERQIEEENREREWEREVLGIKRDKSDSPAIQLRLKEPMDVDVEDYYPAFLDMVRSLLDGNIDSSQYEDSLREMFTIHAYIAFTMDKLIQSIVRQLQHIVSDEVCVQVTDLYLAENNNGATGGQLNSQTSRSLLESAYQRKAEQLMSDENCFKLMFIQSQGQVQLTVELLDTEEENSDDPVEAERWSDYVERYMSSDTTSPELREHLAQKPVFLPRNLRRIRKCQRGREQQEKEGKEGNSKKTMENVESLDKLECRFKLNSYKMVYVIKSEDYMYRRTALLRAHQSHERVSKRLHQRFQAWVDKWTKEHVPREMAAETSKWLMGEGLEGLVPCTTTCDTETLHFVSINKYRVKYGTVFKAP

[2] = molecular target: T2, FLAG/tagged ING2 expressed in C2C12 cells (human) (UniProt Q9H160); assay: as above
T2 sequence: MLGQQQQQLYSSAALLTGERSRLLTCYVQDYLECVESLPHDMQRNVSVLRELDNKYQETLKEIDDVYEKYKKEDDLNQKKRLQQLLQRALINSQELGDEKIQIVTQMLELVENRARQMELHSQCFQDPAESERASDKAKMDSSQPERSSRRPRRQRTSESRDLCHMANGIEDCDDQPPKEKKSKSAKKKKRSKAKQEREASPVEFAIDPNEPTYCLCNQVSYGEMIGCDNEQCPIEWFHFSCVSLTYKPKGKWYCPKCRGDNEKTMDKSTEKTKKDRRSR

[3] = molecular target: T3, MYC epitope tagged wild type human ING2 (human) (UniProt Q9H160); assay: co-IP; lysates of co-transfected 293T cells; ING2 immunoprecipitated by its tag (anti-MYC in Figure 5A, anti-FLAG in Figure 5B), partner detected by blot of its tag
T3 sequence: T2 sequence

[4] = molecular target: T4, MYC epitope tagged human ING2 (ΔLZ), lacking amino acids 1 to 23 (leucine zipper motif) (human) (UniProt Q9H160); assay: as above
T4 sequence: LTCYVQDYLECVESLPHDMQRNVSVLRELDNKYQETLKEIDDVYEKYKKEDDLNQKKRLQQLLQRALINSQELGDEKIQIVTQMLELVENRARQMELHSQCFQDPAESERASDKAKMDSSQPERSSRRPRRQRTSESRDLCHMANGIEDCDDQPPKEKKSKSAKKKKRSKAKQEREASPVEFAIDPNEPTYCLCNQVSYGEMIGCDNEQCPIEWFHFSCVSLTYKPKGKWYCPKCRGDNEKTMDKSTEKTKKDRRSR

[5] = molecular target: T1, endogenous Sin3A of C2C12 myoblasts (mouse (endogenous in C2C12)); assay: co-IP; lysates of C2C12 cells in growth media or one day in differentiation media; endogenous HDAC1 (Figure 5C) or Sin3A (Figure 5D) immunoprecipitated, irrelevant antibody as control; blots for ING2, Sin3A, HDAC1
[6] = molecular target: endogenous HDAC1 of C2C12 myoblasts (mouse (endogenous in C2C12)) (UniProt O09106); assay: as above
FLAG-tagged HDAC1 = FLAG-tagged HDAC1 (UniProt Q13547); assay: co-IP; sequential: lysates of 293T cells transfected with MYC-ING2, MYC-Sin3A and FLAG-HDAC1; anti-FLAG immunoprecipitation, FLAG peptide elution, Sin3A immunoprecipitation of the eluate; blots for ING2, HDAC1, Sin3A
MYC-tagged Sin3A = molecular target: T5, MYC-tagged Sin3A (UniProt Q96ST3); assay: as above
T5 sequence: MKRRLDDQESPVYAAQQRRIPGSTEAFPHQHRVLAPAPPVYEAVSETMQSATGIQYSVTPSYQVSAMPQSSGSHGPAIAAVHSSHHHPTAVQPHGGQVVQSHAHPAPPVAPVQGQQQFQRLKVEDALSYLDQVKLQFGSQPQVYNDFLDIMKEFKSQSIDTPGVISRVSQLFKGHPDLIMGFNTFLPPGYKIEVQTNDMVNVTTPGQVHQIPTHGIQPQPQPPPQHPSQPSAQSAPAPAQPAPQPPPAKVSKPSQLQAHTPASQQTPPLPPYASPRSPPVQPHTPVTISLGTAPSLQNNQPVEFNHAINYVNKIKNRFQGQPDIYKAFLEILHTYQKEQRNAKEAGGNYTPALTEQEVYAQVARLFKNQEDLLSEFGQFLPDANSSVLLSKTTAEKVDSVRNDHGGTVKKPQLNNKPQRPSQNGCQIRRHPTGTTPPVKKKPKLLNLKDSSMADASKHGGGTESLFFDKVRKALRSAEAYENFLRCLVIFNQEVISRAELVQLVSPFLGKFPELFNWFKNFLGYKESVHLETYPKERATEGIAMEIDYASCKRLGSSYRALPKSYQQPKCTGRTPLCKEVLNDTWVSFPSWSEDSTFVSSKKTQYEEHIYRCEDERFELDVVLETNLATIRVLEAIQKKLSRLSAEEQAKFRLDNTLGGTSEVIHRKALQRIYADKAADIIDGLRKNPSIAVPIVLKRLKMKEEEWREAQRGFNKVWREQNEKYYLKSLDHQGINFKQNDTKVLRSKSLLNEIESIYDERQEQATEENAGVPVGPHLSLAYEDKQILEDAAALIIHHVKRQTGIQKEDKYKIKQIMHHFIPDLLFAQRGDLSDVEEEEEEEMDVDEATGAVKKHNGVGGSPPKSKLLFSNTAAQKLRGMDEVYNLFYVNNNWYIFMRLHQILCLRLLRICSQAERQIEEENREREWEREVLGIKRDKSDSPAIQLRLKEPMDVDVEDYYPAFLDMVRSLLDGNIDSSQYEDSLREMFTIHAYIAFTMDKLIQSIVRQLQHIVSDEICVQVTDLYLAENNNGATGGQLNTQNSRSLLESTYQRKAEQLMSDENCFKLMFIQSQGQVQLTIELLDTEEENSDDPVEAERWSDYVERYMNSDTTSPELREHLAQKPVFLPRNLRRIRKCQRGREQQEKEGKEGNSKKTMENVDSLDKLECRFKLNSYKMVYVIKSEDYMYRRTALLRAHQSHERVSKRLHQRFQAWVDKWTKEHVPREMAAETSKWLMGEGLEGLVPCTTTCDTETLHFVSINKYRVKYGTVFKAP

Molecule: endogenous HDAC1 of C2C12 myoblasts (from UniProt O09106 1-482) (enzyme)
binding [1]: binds | binding [2]: binds

Molecule: FLAG-tagged HDAC1 (from UniProt Q13547 1-482) (enzyme)
binding [3]: binds | binding [4]: binds

B2: MYC epitope tagged wild type human ING2 (protein, UniProt Q9H160 1-280)
chain: T2 sequence
binding (FLAG-tagged HDAC1): binds | binding (MYC-tagged Sin3A): binds

Now from value to molecule:

binding [5]: binds | binding [6]: binds
B1: endogenous ING2 of C2C12 myoblasts (protein, UniProt Q9ESK4 1-281)
chain: MLGQQQQQQLYSSAALLTGERSRLLSCYVQDYLECVESLPHDMQRNVSVLRELDNKYQETLKEIDDVYEKYKKEDDSNQKKRLQQHLQRALINSQELGDEKIQIVTQMLELVENRARQMELHSQCFQDPAESERASDKSKMDSSQPERSSRRPRRQRTSESRDLCHMTNGIDDCDDQPPKEKRSKSAKKKKRSKAKQEREASPVEFAIDPNEPTYCLCNQVSYGEMIGCDNEQCPIEWFHFSCVSLTYKPKGKWYCPKCRGDNEKTMDKSTEKTKKERRAR

binding [2]: binds
B3: endogenous Sin3A of C2C12 myoblasts (protein, UniProt Q60520 1-1274)
chain: T1 sequence
